Data from doi:10.1101/056713.
No constants are given. Whether binding was seen depends on the method and setting. In cells and extracts the contact can be indirect. Some results given as binding are weak or reduced against the parent protein; the word gives no strength.

Chains of the proteins cited; added tags and fusions are not shown.
UniProt Q61545: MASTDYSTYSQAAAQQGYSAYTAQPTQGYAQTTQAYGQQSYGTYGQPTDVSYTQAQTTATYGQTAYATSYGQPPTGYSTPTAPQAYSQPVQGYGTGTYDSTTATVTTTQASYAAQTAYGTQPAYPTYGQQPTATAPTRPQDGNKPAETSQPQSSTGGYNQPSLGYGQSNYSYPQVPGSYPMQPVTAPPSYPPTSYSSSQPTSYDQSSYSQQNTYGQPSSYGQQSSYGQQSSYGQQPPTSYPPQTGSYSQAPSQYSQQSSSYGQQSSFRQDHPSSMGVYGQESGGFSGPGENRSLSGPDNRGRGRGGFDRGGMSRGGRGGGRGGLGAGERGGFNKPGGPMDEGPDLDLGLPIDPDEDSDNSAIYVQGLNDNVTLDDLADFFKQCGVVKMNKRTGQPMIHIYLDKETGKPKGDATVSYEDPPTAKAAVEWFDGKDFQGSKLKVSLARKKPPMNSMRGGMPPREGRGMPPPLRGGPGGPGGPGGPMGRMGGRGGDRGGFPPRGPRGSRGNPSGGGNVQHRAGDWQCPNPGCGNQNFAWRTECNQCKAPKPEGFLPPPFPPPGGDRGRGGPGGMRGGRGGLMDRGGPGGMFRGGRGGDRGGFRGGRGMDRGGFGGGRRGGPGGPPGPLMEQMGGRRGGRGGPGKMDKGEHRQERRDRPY

What was measured:
Assay in all cases: co-IP
[1] = target: T1, CDYL, endogenous in mouse testis (mouse (endogenous in testis)) (UniProt Q9WTK2)
T1 sequence: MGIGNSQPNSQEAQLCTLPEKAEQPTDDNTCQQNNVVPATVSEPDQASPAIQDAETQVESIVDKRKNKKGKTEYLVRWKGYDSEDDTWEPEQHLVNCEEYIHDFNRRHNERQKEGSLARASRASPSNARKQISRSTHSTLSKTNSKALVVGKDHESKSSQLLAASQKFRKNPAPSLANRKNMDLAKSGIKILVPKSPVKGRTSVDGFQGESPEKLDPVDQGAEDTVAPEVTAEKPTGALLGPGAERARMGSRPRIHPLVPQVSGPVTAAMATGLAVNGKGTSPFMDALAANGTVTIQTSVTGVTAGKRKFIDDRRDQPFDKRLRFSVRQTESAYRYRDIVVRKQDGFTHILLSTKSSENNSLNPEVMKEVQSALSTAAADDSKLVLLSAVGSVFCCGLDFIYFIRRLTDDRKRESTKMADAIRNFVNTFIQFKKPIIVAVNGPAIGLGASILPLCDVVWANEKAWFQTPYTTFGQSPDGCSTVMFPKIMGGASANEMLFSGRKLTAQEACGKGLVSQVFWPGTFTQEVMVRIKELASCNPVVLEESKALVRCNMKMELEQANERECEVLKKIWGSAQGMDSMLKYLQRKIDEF

[2] = target: EWSR1, endogenous in mouse testis (mouse (endogenous in testis)) (UniProt Q61545)
[3] = target: T2, SYCP3, chromosomal axis/SC lateral element protein, endogenous in mouse testis (mouse (endogenous in testis)) (UniProt P70281)
T2 sequence: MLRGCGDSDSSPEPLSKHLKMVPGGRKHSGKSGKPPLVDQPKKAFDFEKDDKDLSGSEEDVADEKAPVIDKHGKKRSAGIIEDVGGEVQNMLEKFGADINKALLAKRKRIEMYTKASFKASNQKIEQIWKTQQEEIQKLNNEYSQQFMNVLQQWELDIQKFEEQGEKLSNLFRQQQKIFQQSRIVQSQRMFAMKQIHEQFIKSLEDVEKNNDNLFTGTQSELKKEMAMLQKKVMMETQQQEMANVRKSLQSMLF

B1: REC8, meiotic-specific cohesin, endogenous in mouse testis (phosphorylated form) (protein, UniProt Q8C5S7 1-591)
chain: MFYYPNVLQRHTGCFATIWLAATRGSRLVKREYLNVNVVKTCEEILNYVLVRVQPPVAGLPRPRFSLYLSAQLQIGVIRVYFQQCQYLVEDIQHILEHLHRAQLRIRIDMEEADLPSLLLPNCLAMMETLEDAPEPFFGKMSVDPRLPSPFDIPQIRHLLEAATPEKTRKETLPEATPDPRKPDRTLATVQSPEVITLQEAEPIRMLQIEGEQDLPEISRGDLELLIAEKDDAILLEERQRGRLLRQRRASLPLDESREEPRALEGAGLVSALSPPAPAQVEGIQEALPGQVFPPEVQKMTGWEPGALLTEVTPPQELRLPAPPSTEKRLPSLQRPLPRRHRRRQLLFWDKETQISREKFEEQLQTGAHCWEYPVAQPPKRMLTSPAELFRTPTLSGWLPPELLGLWTHCAQVPQRMLRQRPQLETEETVEEERAADEEERRKTEALSEIEVLREAQEPSGPLMLSSELSLEAAEDEKSRTSLIPPEWWAWSEEGQPEPPALPMLPELPEVPMEMPPRPELSSEAVLRAVALKLQANKELDFSSLVPPLSPRKLASRVFYLLLVLSTQKILLVEQQKPYGPLLIRPGPKFP
modifications: phosphorylated form, apparent mobility ~85 kDa (sites not given)
Q: For B1, which binding [1] is on record?
A: no binding

Q: And the binding [2]?
A: binds

Q: And the binding [3]?
A: binds
